Assay results taken from patent publication US12049518B2, “Pharmacokinetics and cholecystokinin-2 receptor (CCK2R) targeting for diagnosis and therapy” (Medizinische Universitat Innsbruck, priority 2017, dated 2024).
Part of at least one peptide drawing is inferred or uncertain, most often the ends. Some results were stated once for a whole list of compounds, not compound by compound.

Columns and labels:
A431-CCK2R cells = assay: cell internalization in A431-CCK2R cells; assay type: cell-based, human; conditions: 2 h incubation at 37° C.
same tumour model = conditions: Laverman et al. 2011, cited from earlier work
[1] = Sauter et al. 2016; cited from earlier work

Structure (SMILES)	internalized radioligand fraction in A431-CCK2R cells (A431-CCK2R cells)	tumour-to-kidney ratio (same tumour model)	tumour uptake (same tumour model; same tumour model, 111In-PP-F11 at 4 h p.i.) [% ID/g]	tumour uptake [1] [% IA/g]
CSCC[C@H](NC(=O)[C@H](Cc1c[nH]c2ccccc12)NC(=O)CNC(=O)[C@H](Cc1ccc(O)cc1)NC(=O)[C@H](C)NC(=O)[C@@H](CCC(=O)O)NC(=O)[C@@H](CCC(=O)O)NC(=O)[C@@H](CCC(=O)O)NC(=O)[C@@H](CCC(=O)O)NC(=O)[C@@H](CCC(=O)O)NC(=O)[C@@H](CCC(=O)O)NC(=O)CN1CCN(CC(=O)O)CCN(CC(=O)O)CCN(CC(=O)O)CC1)C(=O)N[C@@H](CC(=O)O)C(=O)N[C@@H](Cc1ccccc1)C(N)=O [^111In-PP-F11, metal not drawn]	below 24 % of total	1.2±0.5	6.30±2.75	–
CSCC[C@H](NC(=O)[C@H](Cc1c[nH]c2ccccc12)NC(=O)CNC(=O)[C@H](Cc1ccc(O)cc1)NC(=O)[C@H](C)NC(=O)[C@@H](CCC(=O)O)NC(=O)[C@@H](CCC(=O)O)NC(=O)[C@@H](CCC(=O)O)NC(=O)[C@@H](CCC(=O)O)NC(=O)[C@@H](CCC(=O)O)NC(=O)[C@@H](CCC(=O)O)NC(=O)CN1CCN(CC(=O)O)CCN(CC(=O)O)CCN(CC(=O)O)CC1)C(=O)N[C@@H](CC(=O)O)C(=O)N[C@@H](Cc1ccccc1)C(N)=O [^177Lu-PP-F11, metal not drawn, reference compound]	< 30 % of total	–	–	6.70±0.60
CCCC[C@H](NC(=O)[C@H](Cc1c[nH]c2ccccc12)NC(=O)CNC(=O)[C@H](Cc1ccc(O)cc1)NC(=O)[C@H](C)NC(=O)[C@@H](CCC(=O)O)NC(=O)[C@@H](CCC(=O)O)NC(=O)[C@@H](CCC(=O)O)NC(=O)[C@@H](CCC(=O)O)NC(=O)[C@@H](CCC(=O)O)NC(=O)[C@@H](CCC(=O)O)NC(=O)CN1CCN(CC(=O)O)CCN(CC(=O)O)CCN(CC(=O)O)CC1)C(=O)N[C@@H](CC(=O)O)C(=O)N[C@@H](Cc1ccccc1)C(N)=O [^177Lu-PP-F11N, metal not drawn, reference compound]	< 30 % of total	–	–	6.90±0.80
